Data as given in PMC8785580.
No constants are given. Whether binding was seen depends on the method and setting. In cells and extracts the contact can be indirect. Some binding calls cover weakened binding; strength is not graded here.

The chains behind the UniProt entries cited, without tags or fusion partners.
UniProt Q3URK3: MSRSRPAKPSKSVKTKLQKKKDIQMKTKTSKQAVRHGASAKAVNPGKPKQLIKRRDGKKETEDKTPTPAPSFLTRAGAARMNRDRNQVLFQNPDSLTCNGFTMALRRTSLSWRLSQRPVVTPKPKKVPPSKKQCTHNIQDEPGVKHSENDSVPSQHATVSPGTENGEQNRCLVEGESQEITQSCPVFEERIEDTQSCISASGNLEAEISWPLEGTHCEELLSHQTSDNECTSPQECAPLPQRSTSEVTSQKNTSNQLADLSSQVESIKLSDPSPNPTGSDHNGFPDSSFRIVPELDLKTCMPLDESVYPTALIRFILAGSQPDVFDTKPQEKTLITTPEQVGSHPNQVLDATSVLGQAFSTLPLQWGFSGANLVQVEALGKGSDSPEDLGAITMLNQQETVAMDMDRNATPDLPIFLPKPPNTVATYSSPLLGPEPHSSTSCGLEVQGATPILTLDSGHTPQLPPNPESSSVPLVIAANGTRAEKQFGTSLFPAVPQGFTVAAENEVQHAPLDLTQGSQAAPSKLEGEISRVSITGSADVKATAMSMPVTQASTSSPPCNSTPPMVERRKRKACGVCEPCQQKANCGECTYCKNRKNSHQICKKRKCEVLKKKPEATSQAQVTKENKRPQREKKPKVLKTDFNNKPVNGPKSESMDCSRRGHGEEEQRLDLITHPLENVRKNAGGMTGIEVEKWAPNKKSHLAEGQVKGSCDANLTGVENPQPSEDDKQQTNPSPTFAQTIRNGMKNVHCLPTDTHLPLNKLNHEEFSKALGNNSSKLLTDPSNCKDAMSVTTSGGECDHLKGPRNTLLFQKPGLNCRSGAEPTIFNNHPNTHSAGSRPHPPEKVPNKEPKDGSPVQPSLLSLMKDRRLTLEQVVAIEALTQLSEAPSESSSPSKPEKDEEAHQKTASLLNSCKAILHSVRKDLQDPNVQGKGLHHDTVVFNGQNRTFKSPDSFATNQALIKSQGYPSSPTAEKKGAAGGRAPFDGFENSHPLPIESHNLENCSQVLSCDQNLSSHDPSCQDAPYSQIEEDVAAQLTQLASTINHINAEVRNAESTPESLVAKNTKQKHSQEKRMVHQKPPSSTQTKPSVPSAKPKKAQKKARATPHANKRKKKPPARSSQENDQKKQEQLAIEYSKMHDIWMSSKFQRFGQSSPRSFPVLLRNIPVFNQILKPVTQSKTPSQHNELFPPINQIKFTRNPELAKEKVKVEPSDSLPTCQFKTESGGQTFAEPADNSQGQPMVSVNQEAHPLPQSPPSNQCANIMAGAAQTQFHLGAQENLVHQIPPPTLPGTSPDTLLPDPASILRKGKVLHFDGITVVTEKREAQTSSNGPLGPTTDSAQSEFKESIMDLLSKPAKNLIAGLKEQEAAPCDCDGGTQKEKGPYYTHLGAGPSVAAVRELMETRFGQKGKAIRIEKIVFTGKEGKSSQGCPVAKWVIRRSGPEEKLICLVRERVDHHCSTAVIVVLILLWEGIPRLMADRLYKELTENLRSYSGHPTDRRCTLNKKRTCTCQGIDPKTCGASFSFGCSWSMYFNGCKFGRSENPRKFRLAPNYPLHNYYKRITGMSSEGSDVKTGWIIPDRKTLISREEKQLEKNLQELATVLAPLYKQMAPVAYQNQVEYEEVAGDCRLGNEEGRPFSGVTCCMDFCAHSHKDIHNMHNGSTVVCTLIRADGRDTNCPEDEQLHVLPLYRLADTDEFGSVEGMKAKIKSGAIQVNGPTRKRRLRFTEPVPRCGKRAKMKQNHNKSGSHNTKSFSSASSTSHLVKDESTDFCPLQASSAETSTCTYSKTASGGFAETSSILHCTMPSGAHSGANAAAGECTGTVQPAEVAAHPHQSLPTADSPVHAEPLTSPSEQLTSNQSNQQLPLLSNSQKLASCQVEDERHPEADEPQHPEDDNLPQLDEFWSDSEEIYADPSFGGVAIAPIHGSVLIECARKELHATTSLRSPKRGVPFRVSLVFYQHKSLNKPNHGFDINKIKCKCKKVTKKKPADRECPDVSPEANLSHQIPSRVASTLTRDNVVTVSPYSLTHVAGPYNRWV
UniProt O09106: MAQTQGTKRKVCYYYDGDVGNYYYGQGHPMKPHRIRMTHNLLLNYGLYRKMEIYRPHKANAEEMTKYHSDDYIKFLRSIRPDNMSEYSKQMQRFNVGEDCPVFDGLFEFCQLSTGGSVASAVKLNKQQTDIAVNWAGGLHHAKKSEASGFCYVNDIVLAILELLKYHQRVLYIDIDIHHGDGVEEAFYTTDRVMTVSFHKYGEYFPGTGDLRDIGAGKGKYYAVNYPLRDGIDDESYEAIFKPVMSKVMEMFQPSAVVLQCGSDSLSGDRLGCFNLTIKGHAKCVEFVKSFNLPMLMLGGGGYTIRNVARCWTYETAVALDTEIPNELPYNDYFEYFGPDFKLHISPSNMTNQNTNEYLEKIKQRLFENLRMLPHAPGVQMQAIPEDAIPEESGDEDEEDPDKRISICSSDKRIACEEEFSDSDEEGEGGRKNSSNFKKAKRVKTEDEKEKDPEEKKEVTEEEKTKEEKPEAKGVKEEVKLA

How the values were obtained:
[1] = molecular target: T1, Sin3a (endogenous) (mouse (endogenous in reprogramming OG-MEFs)) (UniProt Q60520); assay: co-IP; endogenous proteins in lysate of reprogramming cells (Day 5 for Sin3a-Tet1); 1% Triton X-100, 50 mM Tris-HCl pH 7.4, 150 mM NaCl; antibody overnight at 4 °C, protein A/protein G affinity gel; western blotting; rabbit IgG as negative control
T1 sequence: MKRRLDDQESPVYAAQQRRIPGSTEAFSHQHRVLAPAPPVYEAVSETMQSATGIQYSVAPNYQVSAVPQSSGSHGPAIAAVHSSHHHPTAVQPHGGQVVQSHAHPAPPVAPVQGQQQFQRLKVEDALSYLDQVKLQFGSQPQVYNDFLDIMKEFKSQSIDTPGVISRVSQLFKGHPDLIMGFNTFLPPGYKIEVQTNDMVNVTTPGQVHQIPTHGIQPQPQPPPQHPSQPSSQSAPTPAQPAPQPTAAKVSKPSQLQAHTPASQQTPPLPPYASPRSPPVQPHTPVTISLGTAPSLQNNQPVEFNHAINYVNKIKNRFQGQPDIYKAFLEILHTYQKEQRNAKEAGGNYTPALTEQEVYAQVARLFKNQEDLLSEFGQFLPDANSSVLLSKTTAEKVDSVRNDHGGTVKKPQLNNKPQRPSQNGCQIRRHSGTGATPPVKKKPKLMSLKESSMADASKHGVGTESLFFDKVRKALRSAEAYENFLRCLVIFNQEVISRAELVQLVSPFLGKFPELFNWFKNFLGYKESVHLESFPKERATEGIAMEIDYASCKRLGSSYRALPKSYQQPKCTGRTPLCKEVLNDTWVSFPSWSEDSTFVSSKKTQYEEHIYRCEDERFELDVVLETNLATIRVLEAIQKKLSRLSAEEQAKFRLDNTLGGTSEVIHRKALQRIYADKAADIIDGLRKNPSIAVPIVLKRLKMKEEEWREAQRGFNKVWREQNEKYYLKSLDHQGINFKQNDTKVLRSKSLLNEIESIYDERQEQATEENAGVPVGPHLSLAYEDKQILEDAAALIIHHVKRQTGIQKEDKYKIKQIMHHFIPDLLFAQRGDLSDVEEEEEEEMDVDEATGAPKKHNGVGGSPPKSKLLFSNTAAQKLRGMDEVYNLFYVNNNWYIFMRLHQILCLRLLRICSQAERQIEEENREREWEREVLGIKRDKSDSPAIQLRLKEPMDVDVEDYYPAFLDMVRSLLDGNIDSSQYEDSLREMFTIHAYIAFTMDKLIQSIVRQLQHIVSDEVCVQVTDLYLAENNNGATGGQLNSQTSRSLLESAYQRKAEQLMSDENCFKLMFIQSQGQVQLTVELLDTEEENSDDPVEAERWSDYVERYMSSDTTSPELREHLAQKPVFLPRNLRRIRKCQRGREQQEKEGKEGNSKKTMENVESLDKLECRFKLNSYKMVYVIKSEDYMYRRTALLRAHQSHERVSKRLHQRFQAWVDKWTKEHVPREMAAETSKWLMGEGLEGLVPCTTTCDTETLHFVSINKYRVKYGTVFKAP

[2] = molecular target: Tet1 (endogenous) (mouse (endogenous in reprogramming OG-MEFs)) (UniProt Q3URK3); assay: as above

With “HDAC1 (endogenous) (from UniProt O09106 1-482)” the binding [1] was “binds”.

In the case of “Tet1 (endogenous) (from UniProt Q3URK3 1-2039)”, the binding [1] is reported as “binds”.

B1: Sin3a (endogenous) (protein, UniProt Q60520 1-1274)
chain: MKRRLDDQESPVYAAQQRRIPGSTEAFSHQHRVLAPAPPVYEAVSETMQSATGIQYSVAPNYQVSAVPQSSGSHGPAIAAVHSSHHHPTAVQPHGGQVVQSHAHPAPPVAPVQGQQQFQRLKVEDALSYLDQVKLQFGSQPQVYNDFLDIMKEFKSQSIDTPGVISRVSQLFKGHPDLIMGFNTFLPPGYKIEVQTNDMVNVTTPGQVHQIPTHGIQPQPQPPPQHPSQPSSQSAPTPAQPAPQPTAAKVSKPSQLQAHTPASQQTPPLPPYASPRSPPVQPHTPVTISLGTAPSLQNNQPVEFNHAINYVNKIKNRFQGQPDIYKAFLEILHTYQKEQRNAKEAGGNYTPALTEQEVYAQVARLFKNQEDLLSEFGQFLPDANSSVLLSKTTAEKVDSVRNDHGGTVKKPQLNNKPQRPSQNGCQIRRHSGTGATPPVKKKPKLMSLKESSMADASKHGVGTESLFFDKVRKALRSAEAYENFLRCLVIFNQEVISRAELVQLVSPFLGKFPELFNWFKNFLGYKESVHLESFPKERATEGIAMEIDYASCKRLGSSYRALPKSYQQPKCTGRTPLCKEVLNDTWVSFPSWSEDSTFVSSKKTQYEEHIYRCEDERFELDVVLETNLATIRVLEAIQKKLSRLSAEEQAKFRLDNTLGGTSEVIHRKALQRIYADKAADIIDGLRKNPSIAVPIVLKRLKMKEEEWREAQRGFNKVWREQNEKYYLKSLDHQGINFKQNDTKVLRSKSLLNEIESIYDERQEQATEENAGVPVGPHLSLAYEDKQILEDAAALIIHHVKRQTGIQKEDKYKIKQIMHHFIPDLLFAQRGDLSDVEEEEEEEMDVDEATGAPKKHNGVGGSPPKSKLLFSNTAAQKLRGMDEVYNLFYVNNNWYIFMRLHQILCLRLLRICSQAERQIEEENREREWEREVLGIKRDKSDSPAIQLRLKEPMDVDVEDYYPAFLDMVRSLLDGNIDSSQYEDSLREMFTIHAYIAFTMDKLIQSIVRQLQHIVSDEVCVQVTDLYLAENNNGATGGQLNSQTSRSLLESAYQRKAEQLMSDENCFKLMFIQSQGQVQLTVELLDTEEENSDDPVEAERWSDYVERYMSSDTTSPELREHLAQKPVFLPRNLRRIRKCQRGREQQEKEGKEGNSKKTMENVESLDKLECRFKLNSYKMVYVIKSEDYMYRRTALLRAHQSHERVSKRLHQRFQAWVDKWTKEHVPREMAAETSKWLMGEGLEGLVPCTTTCDTETLHFVSINKYRVKYGTVFKAP
In the case of B1, the binding [2] is reported as “binds”.
